# From PubChem BioAssay AID504444 (National Center for Advancing Translational Sciences (NCATS), 2011)
# Screen size: about 360,000 compounds; about 7,500 (2.1%) were called active. Inconclusive results, whose numbers are uncertain, are shown with a selection of clear calls. The call rests on the fitted dose curve; in most records, active means well fitted inhibition curve with a large enough effect; inconclusive means small, poorly fitted or top-dose-only effect, or effect the other way; inactive means flat fitted curve, though single readings scatter. Potencies beside an inconclusive call are fits to weak or partial responses and may not hold up.
# Experiment: Nrf2 qHTS screen for inhibitors; further: nearly all actives have a fitted effect of over 60% in size
# Conditions: A549 ARE-Fluc reporter, luciferase luminescence, 18-24 h; activity change, negative = inhibition: at 46 µM (top of the series)
# Outline: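 Nrf2 activity is the BugLite luminescence, read 15 min after reagent at room temperature, following CellTiter-Fluor cytotoxicity readout (30 min, 37C). Compound titrations were applied for 18-24 h to 5000 A549 ARE_Fluc cells/well in 5% FBS OPTI-MEM.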
# On the % scale 0 is the no-effect control and ±100 the full control effect; potency means the concentration at half of the fitted maximal effect.
Compound,Potency,"activity change, negative = inhibition"
O=C(NC1CCCCC1)c1sc(=S)n2c1[nH]c(=O)c1ccccc12,"inconclusive: 23.1 µM [falling, single point]",
O=C(CN1CCCN(Cc2ccc(F)cc2Cl)C1=O)NC1CCCCCCC1,"inconclusive: 14.6 µM [falling, partial curve, poor fit]",
CCN(CC)c1ccc(NC(=O)CN2C(=O)CC(C)(C)S(=O)(=O)c3ccccc32)c(C)c1,"inconclusive: 13 µM [falling, partial curve, poor fit]",
O=c1cc2oc3cc(O)c(O)cc3c(-c3ccccc3[N+](=O)[O-])c-2cc1O,active: 3.26 µM,
CC1CN(c2nc3ccccc3nc2SCC(=O)Nc2cccc(C(F)(F)F)c2)CC(C)O1 (centres undefined),"inconclusive: 25.9 µM [falling, single point]",
COc1ccccc1Nc1nc(C)nc2c1oc1ccccc12,"inconclusive: 32.6 µM [falling, single point]",
CCOc1ccc(N(CC(=O)Nc2ccc3c(c2)OCO3)S(=O)(=O)c2ccccc2)cc1,"inconclusive: 18.4 µM [falling, single point]",
O=C1c2oc3ccccc3c(=O)c2C(c2cccc(O)c2)N1Cc1ccc(F)cc1 (centres undefined),,inactive: -1.69%
CC(=O)C12CCCCC1CC1C3CC(C)C4(O)CC(=O)CCC4(C)C3CCC12C (centres undefined),"inconclusive: 0.651 µM [falling, full curve, poor fit]",
Cc1nn(C)c2c1c(-c1ccccc1)cc(=O)n2Cc1c(F)cccc1Cl,,inactive: -2.2%
N=c1ccn(Cc2cccc(F)c2)cc1,active: 2.06 µM,
N#Cc1c(-c2ccccc2F)cc(C2CC2)nc1SCC(=O)c1cccs1,"inconclusive: 20.6 µM [falling, partial curve]",
CCOc1ccc(-c2cc(CCCC(=O)NCc3cccnc3)no2)cc1,,inactive: 12.9%
CN1/C(=C\C(=O)COc2ccc3c(c2)OCO3)C(C)(C)c2ccccc21,"inconclusive: 32.6 µM [falling, single point]",
O=C(Nc1ccc(CN2CCOCC2)cc1)c1ccc(-c2cccc(Cl)c2)o1,"inconclusive: 23.1 µM [falling, partial curve, poor fit]",
CCOc1ccc(C(=O)Nc2cc(-c3ccccc3)no2)cc1,"inconclusive: 2.06 µM [activator, full curve]",
Cc1cccc(C(=O)N2N=C(c3ccc(NS(C)(=O)=O)cc3)CC2c2cccs2)c1 (centres undefined),active: 23.1 µM,
Cc1nnc(SCC(=O)N(CCC#N)c2ccc3c(c2)OCCO3)s1,,inactive: -14.9%
COc1ccc(CNS(=O)(=O)c2ccc(NC(=O)N3CCCCC3)cc2)cc1,"inconclusive: 25.9 µM [falling, partial curve, poor fit]",
CCOc1ccccc1NC(=O)c1cc2ccc3cccnc3c2[nH]1,"inconclusive: 0.651 µM [activator, full curve, poor fit]",
CCN(Cc1ccccc1)C(=O)c1cc2ccc3cccnc3c2[nH]1,,inactive: -18.6%
O=C(CSc1nc2scc(-c3ccccc3)c2c(=O)[nH]1)N1CCOCC1,"inconclusive: 9.2 µM [falling, partial curve, poor fit]",

Compound,Potency,"activity change, negative = inhibition"
Cc1oncc1C(=O)Nc1cccc(C#N)c1,"inconclusive: 1.3 µM [falling, full curve, poor fit]",
COc1ccc(CN2CCN(C(=O)c3ccc4c(c3)CCC4)CC2)cc1OC,,inactive: -3.1%
CCCCc1nnc(NC(=O)CSCc2cc(=O)n3ccsc3n2)s1,,inactive: 11.4%
CCc1c(C)c(C#N)c2nc3ccccc3n2c1NCc1ccco1,"inconclusive: 32.6 µM [falling, single point]",
COC(=O)c1ccc(-c2nc3cc(Cl)c(N)cc3s2)cc1,"inconclusive: 1.64 µM [activator, full curve]",
Cc1ccc(-c2noc(-c3ccno3)n2)cc1,"inconclusive: 23.1 µM [activator, partial curve]",
Cc1ccc(OCCCCCCN2CCNCC2)cc1,"inconclusive: 20.6 µM [activator, single point]",
Cc1ccccc1-n1nnnc1Sc1nnnn1-c1ccccc1,,inactive: -7.6%
CN(C)S(=O)(=O)c1cc(NC(=O)CN2CCCc3ccccc32)ccc1Cl,"inconclusive: 18.4 µM [falling, single point]",
Cc1cccc(/C(N)=N/OC(=O)CCc2ccccc2)c1,"inconclusive: 7.31 µM [activator, partial curve, poor fit]",
O=C(NCc1ccc(Cl)cc1Cl)C1CCN(S(=O)(=O)c2ccc3c(c2)OCCCO3)CC1,"inconclusive: 20.6 µM [falling, single point]",
Cc1ccc2sc(N(CCCN(C)C)C(=O)c3ccc(S(=O)(=O)N(C)Cc4ccccc4)cc3)nc2c1C,,inactive: 1.17%
CCN(CC)C(=S)SCC(=O)c1ccccc1,"inconclusive: 6.51 µM [activator, full curve]",
NS(=O)(=O)c1ccc(CCNC(=O)CCCn2ncn3c(cc4occc43)c2=O)cc1,,inactive: 15.8%
Cc1ccc(S(=O)(=O)Nc2ccc(=O)n(Cc3ccc(Cl)c(Cl)c3)c2)cc1,"inconclusive: 20.6 µM [falling, partial curve, poor fit]",
O=S(=O)(/C=C/c1ccccc1)Nc1ccc(F)cc1,"inconclusive: 6.51 µM [activator, single point]",
COC(=O)c1ccc2c(c1)N(C)S(=O)(=O)c1cnc(SCC(=O)C(C)(C)C)nc1-2,,inactive: 0%
Cn1nc(C(=O)Nc2cccc(S(N)(=O)=O)c2)c2ccccc2c1=O,"inconclusive: 3.26 µM [falling, full curve, poor fit]",
CC(=O)OCC(=O)C1CCC2C3CC=C4CC(O)CCC4(C)C3CCC12C (centres undefined),,inactive: 10.5%
Cc1cccc(-c2nnc(SCC(=O)NC3CCCCC3)o2)c1,"inconclusive: 23.1 µM [falling, single point]",
CCC1([N+](=O)[O-])COC(c2ccc(OC)cc2)OC1 (centres undefined),"inconclusive: 3.26 µM [activator, full curve, poor fit]",
O=C(Nc1ccc(S(=O)(=O)NC2=NCCCCC2)cc1)c1cc(S(=O)(=O)N2CCOCC2)ccc1F,"inconclusive: 2.91 µM [falling, single point]",

# Part of the list above, tab-delimited.
Compound	Potency	activity change, negative = inhibition
CN(C)S(=O)(=O)c1cc(NC(=O)CN2CCCc3ccccc32)ccc1Cl	inconclusive: 18.4 µM [falling, single point]	
O=C(NCc1ccc(Cl)cc1Cl)C1CCN(S(=O)(=O)c2ccc3c(c2)OCCCO3)CC1	inconclusive: 20.6 µM [falling, single point]	
